The source of these data is paper PMC11677858.

For assay [1], the target named is leucine-rich receptor like kinase LRK2, bait fusion LRK2-PBT3-SUC (rice (Oryza sativa)). The assay can be described thus: two-hybrid; LRK2 as bait in PBT3-SUC, OsARF24 as prey in pPR3-N, yeast strain NMY51; growth on SD/-Leu-Trp and SD-Trp-His-Leu-Ade medium, 28 °C, 3 days.
Assay [2] concerns the target LRK2:cGFP (rice (Oryza sativa)). Kind of assay: split reporter; BiFC with LRK2:cGFP and OsARF24:nGFP, Agrobacterium mixed with p19 and injected into leaves of 3-week-old tobacco plants; confocal microscope.

No constants are given. Whether binding was seen depends on the method and setting. Binding calls can cover weak binding; strength is not graded here. Tags and fused reporters may be left off the sequences shown. For some assays here: Binding seen in cells or lysates may run through a third protein.

B1: auxin response factor 24 (OsARF24), prey fusion OsARF24-pPR3-N (protein, UniProt Q2QQX6 1-841)
chain: MAAAATAAASPVEGLTGGGGGGGGGVDGLFVELWRACAGPLVTVPAVGERVFYLPQGHIEQVEASTNQVAEQQGAPLYNLPWKIPCKVMNVELKAEPDTDEVYAQLTLLPEKQQDGNGSGNGNVSKDKVEEEEVVPPAATERPRVHSFCKTLTASDTSTHGGFSVLRRHADECLPPLDMSQHPPTQELVAKDLHGVEWRFRHIFRGQPRRHLLQSGWSVFVSAKRLVAGDAFIFLRGENGELRVGVRRAMRQQANIPSSVISSHSMHLGVLATAWHAVNTGTMFTVYYKPRTSPSEFVVPRDLYKESLKRNHSIGMRFKMTFEGEEAAEQRFTGTIVGVGDSDPSGWADSKWRSLKVRWDEAASVPRPDRVSPWQIEPANSPSPVNPLPAPRTKRARPNVLASSPDLSAVNKEVASKVMANSQQNGLPRAFHSQENMNLRSRFGDSNELNTSQKLTMWSSGSNQEKNNVSVQRELGSQSWMQMRRPDGSSEILSGFQPLKDTRNPLSSFPSQISGNRSNTWNTINVHYPDQNANHNMYPGTWSLMPPNTGFGVNQQNYLMTPDITLPQRSLNAKFGGNGAFTSLRAHGIDQRSSGWLGHIEPSSHIDDASSSLIKPQPLVIDHNVQKAKGSSCMLFGISLDSPAKPELLISPPSVAFDGKLQQDALEEDECSDPSKTVKPLDGAQHDSAREKHQSCPDGTKNIQSKQQNGSSRSCKKVHKQGIALGRSIDLTKFTCYDELIAELDQMFDFNGELNSSSKNWMVVYTDNEGDMMLVGDDPWNEFCNMVHKIFIYTREEVQKMNPGALNSRSEDSRSTSVERGLVGEGLQGGLSTPSLNSENC
Consider B1, for which the binding result in assay [1] was “binds”.

B2: OsARF24:nGFP (protein, UniProt Q2QQX6 1-841)
chain: B1 chain
B2: the binding result in assay [2] is recorded as “binds”.
